# Experimental data: PubChem BioAssay AID1508600 (Functional Genomics Laboratory (NCATS/FGL), 2020)
# The whole screen tested about 53,000 sequences, of which about 3,700 (7%) were called active.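 The calls were made as follows: active = gene knockdowns whose robust z-score for IL-1 alpha signal is at least 2 or at most -2, so actives lie on both sides; inactive = the rest.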 The list shows a part of the results.
# Assay: Components of the Cytosolic LPS Sensing Pathway: Gene Identification via Genome-wide siRNA Screen;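 also: robust z of the log signal after scaling to non-targeting control siRNA wells of the plate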
# Conditions: RAW264.7 macrophages, IL-1a HTRF, actives lie on both sides, screened at 100 nM (by protocol), cells primed 5 h with Pam3CSK4 first
# Procedure, shortened: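 RAW264.7; siRNA 100 nM final, RNAiMAX, 48h 37 degrees C; Pam3CSK4 5 h; LipidA + TransIT-TKO 24 h; IL-1a HTRF; CellTiter-Glo viability; robust z vs negative-control median.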
row,Sequence,z-score
1,GGACUUAACAGCAACGCAGTT against Ndn,inactive: -1.01
2,GGUGGUGGAGAAGAUAGGATT against Pax8,inactive: -1.05
3,GGUCACUCCAUUGACUCAATT against Leprot,inactive: 0.672
4,GGAAAAGACAUCAGAUGAATT against Mrpl1,inactive: 0.233
5,GCUAUUCUGUAAGGUCCCGTT against Gsto2,inactive: 1.19
6,GGAAUACACUUACCUAGGUTT against Tpd52l2,inactive: -0.897
7,GGAAAUACCAUUCAAGUGUTT against Rnf113a1,inactive: 1.05
8,GGUAAAAGGUGAAGAAAAATT against Nap1l3,inactive: -1.51
9,CCACGUUUUGACUGACUUCTT against Thnsl1,inactive: 0.287
10,GCUGGAGAUGAUUGUCUGATT against Psmd8,inactive: -1.22
11,GGAACUGCCUACCUAGAGATT against Mrps17,inactive: 0.782
12,GGAGAAGAAACGGAAAUGATT against Jagn1,inactive: -1.98
13,GGCAGAUUUAGUUUCUUUUTT against Ppm1k,inactive: 0.936
14,GGACUCAGAGCUCUUUGACTT against Ipo13,inactive: -1.74
15,CCAUGAGGAUGGAAACUACTT against Ranbp3,inactive: -1.73
16,GGAAACAUGACAGUGGUGCTT against Hypk,inactive: -0.825
17,GGGCAAGAUUAAGACUUAUTT against Armcx1,inactive: -0.715
18,GGUACCGGAGUCUGAAACATT against Drp2,active: -2.53
19,GGUGGUUAGAUCUUACGCUTT against Tmem184a,active: 4.37
20,GGCAGAAACCAAGUUGGCUTT against Diablo,inactive: -0.502
21,GGACCUGGUUCAGGUAUCATT against Col6a3,active: -2.17
22,GCGGCUUACUCAAAUCAAGTT against Ctdspl2,inactive: -0.837

row,Sequence,z-score
1,CCUCUGCUUUAUGAUCAACTT against Gm867,inactive: -1.26
2,GCCAUGCUCACUGAACUUCTT against Nanp,active: -2.3
3,CCUGGAACUUUUCCCUUAUTT against Olfr235,inactive: 0.0668
4,GCUUAGAUCACCUAAUGACTT against Parp3,inactive: 1.18
5,GGUCACAGAUGAAAUUAUGTT against Ltbr,inactive: 0.2
6,GGCUCCUUUUUGAGCUGAATT against Zfp950,inactive: -0.525
7,GCCCAAAUCGCUUACUCAUTT against Rtn4ip1,inactive: -1.18
8,GGUGCAACAAUCAUUUGAATT against Casp4,inactive: -0.431
9,ACUCAAUGUGCUCAAAAAATT against Scnm1,inactive: -0.713
10,GGUGCUAUGGAAAAUCAAGTT against Dcaf1,inactive: -1.04
11,CCUUUCCUACUCCCAACACTT against Egr1,inactive: 0.21
12,CCCAUGCUCUCAAGACCAATT against Epn3,inactive: -0.0257
13,GGUAGCCAAACUUCGUCGATT against Trim37,inactive: -0.237
14,GGACAACAUUGCCUGUACUTT against Islr,inactive: -1.01
15,CGGUUCCAACCUUGAAAAATT against H1f10,inactive: -0.676
16,CUUUGCUCUAUCUCUCAGCTT against Olfr504,inactive: 1.44
17,CCUACACUGAGAUUUCAACTT against Nsl1,inactive: -0.595
18,GGAUAGGUUGAACAGGUUGTT against BC028528,inactive: 1.19
19,GGAUCAGAACUUAUCUGUGTT against Utp23,inactive: 0.383
20,CCUUUAUCAUUGGAUAACUTT against Dusp11,inactive: 1.53
21,GGCAGUUCUCCAGUGCUUUTT against Mtss1,inactive: -1.32
22,GGUAAUAAAGCUCUUACAGTT against Nanp,inactive: 0.0716

# A stretch from further up, for reference:
row,Sequence,z-score
9,ACUCAAUGUGCUCAAAAAATT against Scnm1,inactive: -0.713
10,GGUGCUAUGGAAAAUCAAGTT against Dcaf1,inactive: -1.04

# Five entries picked at random from the list so far, as already listed:
row,Sequence,z-score
7,GCCCAAAUCGCUUACUCAUTT against Rtn4ip1,inactive: -1.18
3,CCUGGAACUUUUCCCUUAUTT against Olfr235,inactive: 0.0668
2,GCCAUGCUCACUGAACUUCTT against Nanp,active: -2.3
10,GGUGCUAUGGAAAAUCAAGTT against Dcaf1,inactive: -1.04
6,GGCUCCUUUUUGAGCUGAATT against Zfp950,inactive: -0.525

# Additional records follow:

row,Sequence,z-score
1,GGCUAGCAGGAUCAGCAUCTT against Rnf212,inactive: 0.617
2,GCUAUGUGAGUUCCACAAATT against Rapsn,inactive: -1.28
3,CCUGUUCUAACUGUAUCUUTT against Pcdhb9,inactive: -0.129
4,GGUUUAAGAAGUCAACAUUTT against Slc36a4,inactive: -0.861
5,GGCAAGAAGUAUUUCCAUGTT against Fcgr4,inactive: 0.795
6,GGAGUUUUAUGCUGAGCAGTT against Eef1akmt1,inactive: 1.51
7,GCACUCAAUAUAGCUUUAATT against Olfr1489,inactive: -0.81
8,GGCAUCUUAUUUCUUGUUATT against Tbkbp1,inactive: -0.56
9,GCGAUUUGUCAAAGAGCUGTT against Pcyox1,inactive: -0.0486
10,GGAGAAUUUGGAAAGUGAGTT against Rnf150,inactive: 0.0696
11,GGUUGUUGUUUCGUAACAUTT against Celf2,inactive: -0.153
12,GGAUGGAGACACCAAUUUUTT against Rdh9,inactive: -0.37
13,GGCUGAAGACACUGAACACTT against Olfr643,active: -2.51
14,UGAACAAACUUUCAGCCUCTT against Ugt2b5,inactive: -0.323
15,GGAUUUAACCCUGAGAUACTT against Grpel2,inactive: 0.621
16,GGAGGUAUACAUCACCACATT against Pidd1,inactive: 1.43
17,GGUACUACAAAAGAGAGCUTT against Ubr1,inactive: -0.237
18,GGAAAAGGUGGAGUUCUUATT against Fsd2,inactive: 0.0598
19,GGACAUGAAAGUUGACCUGTT against Mrps31,inactive: 0.465
20,GGCAAAAAUACUUUGUCGGTT against Alox5ap,inactive: -0.283
21,GGAUAUUAUUGUUCCCACUTT against Olfr907,inactive: -0.174
22,GGAAUAUCCAGUAUUGAUUTT against Cd180,inactive: -0.396

row,Sequence,z-score
1,CCAGUGCCUCAAGCUUUCATT against Slc35f6,inactive: 0.403
2,GGCAUCAGUUCCACAACUCTT against Klhl38,inactive: -0.747
3,GGCUUGUUUGAUGUUUGCATT against Ldhb,inactive: 1.93
4,GCCUCUGAAAGUGUAAUUATT against Ccdc103,inactive: 0.184
5,GGGAGUUAACUUCAAGGAATT against Ffar4,inactive: 0.555
6,GCAAAACCUACUGCGUGGATT against Kmt5a,inactive: -0.796
7,CAGGGCUCACAGAGUCUCCTT against Olfr190,inactive: -0.382
8,GCUGUAUGGCUAAGCAGUGTT against Olfr113,inactive: -0.42
9,GGGAGUGACUCAGAUCGAUTT against Atp6v1c1,inactive: -0.157
10,CGGGAAGUAGUGCAACACCTT against Taldo1,inactive: -0.902
11,GGAGCUGAUAAAUCUGAACTT against Dhrs7,inactive: 1.68
12,GGAACAGCAGCCUGAAUGATT against B4galt5,inactive: -0.65
13,CCCUGCCCGGGUUUUUAUATT against Tspan9,inactive: 0.0317
14,CGAAUUCAAUGUGCAUUAGTT against Tmem232,inactive: -0.442
15,GGAAGAACUAAAGAGUCUUTT against Elavl2,inactive: -0.692
16,GGGUGAUGAUGGAUUCUGUTT against Eef1g,inactive: 1.04
17,GGAGUAAACCUACUGCUCATT against Esam,active: 2.14
18,GGAUCAAAUCAAGAAGAUGTT against Chmp5,inactive: 0.627
19,GGUUUUUUUGAGUUUCAGGTT against Lars,inactive: -0.405
20,GGACAGCCACCCAUCUGAATT against Ddx59,inactive: 0.465
21,GGAUCAUAUAUGAAGCACATT against Mybl1,active: -2.16
22,GGCUUCAAACACUUCCUUGTT against Sh2d4b,inactive: 0.818

# Taken from above.
# In z-score, CGAAUUCAAUGUGCAUUAGTT against Tmem232 is entered as inactive: -0.442
# In z-score, GCAAAACCUACUGCGUGGATT against Kmt5a is entered as inactive: -0.796

# The results go on:

row,Sequence,z-score
1,CCUGUAGGUGGAAUAAACATT against Awat2,active: -2.28
2,GGAGUUUGUUGGAGCCAUUTT against Unc79,inactive: 0.0777
3,GGUGACAACCAUGAUCUCCTT against C1qtnf2,inactive: -0.153
4,GGUUUCCAGAAGAAGGUUCTT against Rbm26,inactive: 0.621
5,GGACCGCCGUGUAAUGAUCTT against Kat6b,inactive: -0.513
6,GCCAAUAAACCCGUUUUUATT against Timm10b,inactive: 0.0478
7,GGUGGAGAGGGACAACUUUTT against Gfap,inactive: 1.39
8,GGAUGAUCACAUCGAUUGGTT against Vps41,inactive: 0.0283
9,GCAGUUUUAUAAUCCUAGUTT against Eloa,inactive: -0.134
10,GGUUCCUCUCCUCCUGAUATT against Olfr1444,inactive: -0.261
11,GCAGUAGUAACUGCUUGAGTT against Saa2,inactive: -1.29
12,GCCCUGUACACGGUAAACUTT against Ackr4,inactive: 1.05
13,GCAAUAGCAAAACGACUAATT against Nrk,inactive: 0.517
14,GCGUGUGACUUACAAGGAATT against Mapk12,inactive: -0.369
15,GCAUUUAUAAUUGCUGAACTT against Cbx1,inactive: -0.637
16,CCCUUAUGAACCCAUAAAGTT against Oasl1,inactive: -1.02
17,GGAAUCUAGGAUUCCACAGTT against Tbxa2r,inactive: -1.24
18,GGCUUAAACACCUCCAAUGTT against Ctnnd2,inactive: -0.232
19,GCUAUGUGUUGAUUUAAAGTT against Pdk1,inactive: 0.422
